{"source": "PubChem BioAssay AID2685", "about": "(National Center for Advancing Translational Sciences (NCATS), 2010)", "note": "In all, about 320,000 compounds went through this assay and about 2,100 (0.66%) were called active. The shares of active, inactive and inconclusive entries below differ from those in the screen. Calls come from the whole dose curve; as a rule, active = well fitted inhibition curve with a large enough effect in the signal ratio, with a control signal flat (not every such curve was filed as active); inconclusive = small, poorly fitted or top-dose-only effect, or effect the other way, or a change in a side signal; inactive = flat fitted curve, though single readings scatter; the % refers to the signal ratio. Where the call is inconclusive, the potency comes from a doubtful curve fit. % is set by controls: 0 for no effect and ±100 for the full control effect; potency is the fitted concentration of half-maximal effect.", "data": [{"assay": "qHTS Assay for Lipid Storage Modulators in Drosophila S3 Cells", "settings": "BODIPY lipid droplet fluorescence, 18-24 h, cells fed with added oleic acid; lipid storage change, negative = inhibition: at 46.1 µM (top of the series) unless noted", "in_short": "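Laser-scanning cytometry quantifies lipid droplet accumulation (500–530 nm total intensity; droplet/cell object ratio) in oleic acid-fed (400 uM added) Drosophila S3 cells treated with a concentration series. 20 uM Triacsin C defined 100% inhibition.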", "values": [{"smiles": "CC(C)c1ccc(NS(=O)(=O)c2ccc3c(c2)oc(=O)n3C)cc1", "lipid storage change, negative = inhibition": "inconclusive: 18.1%"}, {"smiles": "COc1ccc2nc(C(F)(F)C(F)(F)F)c(C#N)c(N)c2c1", "lipid storage change, negative = inhibition": "inconclusive: 0.566%"}, {"smiles": "COc1ccc(CCC(=O)Nc2ncc(C)s2)cc1", "lipid storage change, negative = inhibition": "inconclusive: 413%"}, {"smiles": "CCC(C)NC(=O)C(Cc1ccccc1)n1cccc1", "note": "(stereo unspecified)", "lipid storage change, negative = inhibition": "inconclusive: -10.4%"}, {"smiles": "COc1ccc(CNC(=O)C2CC(=O)N(C3CCCC3)C2)cc1", "note": "(stereo unspecified)", "lipid storage change, negative = inhibition": "inconclusive: 10.6%"}, {"smiles": "CCCSc1nc(N)cc(=O)[nH]1", "lipid storage change, negative = inhibition": "inconclusive: -41.9%"}, {"smiles": "COc1ccc(Nc2nnc(C)c3ccccc23)cc1", "lipid storage change, negative = inhibition": "inconclusive: 10.4%"}, {"smiles": "Cn1c(/C(C#N)=C(\\O)c2cc(Cl)sc2Cl)nc2ccccc21", "Potency": "inconclusive: 0.58 µM [activator, single point]"}, {"smiles": "COc1ccc(-c2nc(CS(=O)CC(=O)NCC3CCCO3)c(C)o2)cc1", "note": "(stereo unspecified)", "Potency": "inconclusive: 25.9 µM [falling, single point]"}, {"smiles": "O=C(COC(=O)c1cccc(Cl)c1Cl)NCc1cccs1", "lipid storage change, negative = inhibition": "inconclusive: 3.61%"}, {"smiles": "CCOCc1cc(CN2CCC(n3nccc3NC(=O)C3CC3)CC2)ccc1OC", "Potency": "inconclusive: 2.31 µM [falling, partial curve, poor fit]"}, {"smiles": "Cc1cc(S(=O)(=O)Nc2c(C(=O)O)[nH]c3ccccc23)ccc1F", "lipid storage change, negative = inhibition": "inconclusive: 0.401%"}, {"smiles": "Cc1coc2c(C)c3oc(=O)c(CCC(=O)NCCCN4CCCC4=O)c(C)c3cc12", "lipid storage change, negative = inhibition": "inconclusive: 2.39%"}, {"smiles": "Cc1ccc([N+](=O)[O-])cc1-c1ccc(/C=N\\n2nnnc2N)o1", "Potency": "inconclusive: 0.0041 µM [activator, full curve, poor fit]"}, {"smiles": "O=C(CSc1ncnc2c1nnn2Cc1ccc(F)cc1)NC1CCCCC1", "Potency": "active: 20.6 µM"}, {"smiles": "O=C1OC(c2ccccc2)=N/C1=C\\C=C\\c1ccccc1[N+](=O)[O-]", "Potency": "inconclusive: 1.16 µM [activator, full curve, poor fit]"}, {"smiles": "COc1ccc(/C=C/C(=O)N(CCC(N)=O)c2ccccc2)cc1S(=O)(=O)N1CCOCC1", "lipid storage change, negative = inhibition": "inconclusive"}, {"smiles": "COC(=O)C1=C(NC(=O)c2ccc(C)cc2)CCS1", "lipid storage change, negative = inhibition": "inconclusive: -11.5%"}, {"smiles": "CC(Sc1nccn1C)C(=O)Nc1ccc(Cl)cn1", "note": "(stereo unspecified)", "lipid storage change, negative = inhibition": "inconclusive"}, {"smiles": "CC1(C)CC(=O)C=C(c2ccc(F)cc2OCc2ccccc2)C1", "lipid storage change, negative = inhibition": "inconclusive: 18%"}, {"smiles": "c1ccc(CCCCN2C(Nc3ccccc3)=NC[C@@H]2Cc2ccccc2)cc1", "Potency": "inconclusive: 29.1 µM [falling, single point]"}, {"smiles": "COc1ccc(NS(=O)(=O)c2cnc[nH]2)cc1", "lipid storage change, negative = inhibition": "inconclusive: 26.2%"}, {"smiles": "Cn1c(SCC(=O)NC2CCCC2)nnc1-c1ccco1", "Potency": "inconclusive: 6.51 µM [falling, single point]"}, {"smiles": "Cc1ccc(S(=O)(=O)Nc2ccccn2)cc1[N+](=O)[O-]", "lipid storage change, negative = inhibition": "inconclusive: 24.4%"}, {"smiles": "COc1ccc(Cl)cc1NC(=O)CC(C)=O", "lipid storage change, negative = inhibition": "inconclusive: 15.9%"}, {"smiles": "CC1CN(C(=O)c2nn(C)cc2[N+](=O)[O-])CC(C)O1", "note": "(stereo unspecified)", "lipid storage change, negative = inhibition": "inconclusive: -6.49%"}, {"smiles": "COc1ccccc1/C=C/C=N/n1c(-c2ccc(C)cc2)n[nH]c1=S", "Potency": "inconclusive: 4.11 µM [activator, full curve, poor fit]"}, {"smiles": "COC(=O)c1cccc(NC(=O)CCN2C(=O)C3CC=CCC3C2=O)c1", "note": "(stereo unspecified)", "Potency": "inconclusive: 16.4 µM [activator, partial curve]"}, {"smiles": "CCOC(=O)C(C)c1n[nH]c(=O)c2ccccc12", "note": "(stereo unspecified)", "lipid storage change, negative = inhibition": "inconclusive: -11%"}, {"smiles": "Cc1cc(NC(=O)CCS(=O)(=O)c2ccc(F)cc2)no1", "lipid storage change, negative = inhibition": "inconclusive"}, {"smiles": "O=C(CCCN1C(=O)C2CC=CCC2C1=O)Nc1ccccc1Cl", "note": "(stereo unspecified)", "lipid storage change, negative = inhibition": "inconclusive: 48.9%"}, {"smiles": "COc1ccc(NC(=O)CN2CCC(NC(=O)c3ccc(OC)cc3)CC2)cc1", "lipid storage change, negative = inhibition": "inconclusive: 20.4%"}, {"smiles": "CC(C)C12CN3CC(C(C)C)(CN(C1)C3c1ccccc1)C2O", "note": "(stereo unspecified)", "lipid storage change, negative = inhibition": "inconclusive: 55%"}, {"smiles": "Cc1ccc(C2CC(=O)C(C=NCCN3CCN(CC(=O)Nc4cc(C)cc(C)c4)CC3)=C(O)C2)cc1", "note": "(stereo unspecified)", "lipid storage change, negative = inhibition": "inconclusive: 0.659%"}, {"smiles": "OCCN(CCO)c1nc(N2CCCCC2)c2nc(N(CCO)CCO)nc(N3CCCCC3)c2n1", "lipid storage change, negative = inhibition": "inconclusive: 13.1%"}, {"smiles": "CNc1nc(SCC(=O)OC)nc(N2CCOCC2)n1", "lipid storage change, negative = inhibition": "inconclusive: 16.1%"}, {"smiles": "Cc1cc(NC(=O)CCC(=O)N(CC(=O)NCC2CCCO2)c2ccc(Cl)c(Cl)c2)no1", "note": "(stereo unspecified)", "outcome": "inactive [at 46.1 µM]"}, {"smiles": "CC(NC(=O)c1ccccc1NC(=O)CN1CCN(c2ccccc2O)CC1)c1ccccc1", "note": "(stereo unspecified)", "Potency": "active: 8.2 µM"}, {"smiles": "CN(C)c1ccc(-c2sc(Nc3ccccc3)n[n+]2-c2ccc(F)cc2)cc1", "Potency": "inconclusive: 29.1 µM [falling, single point]"}, {"smiles": "CCC(C(=O)NCCCN1CCOCC1)n1c2ccccc2c2nc(=O)cc(C)n21", "note": "(stereo unspecified)", "lipid storage change, negative = inhibition": "inconclusive: 1.67%"}, {"smiles": "Cc1ccc(S(=O)(=O)N2CCN(C(=O)COC(=O)C3CC3C)CC2)c(C)c1", "note": "(stereo unspecified)", "Potency": "inconclusive: 1.64 µM [activator, partial curve, poor fit]"}, {"smiles": "O=C(Nc1ccccc1C(=O)NC(Cc1c[nH]c2ccccc12)C(=O)O)c1ccco1", "note": "(stereo unspecified)", "lipid storage change, negative = inhibition": "inconclusive: 37.6%"}, {"smiles": "COc1ccc(N2CCN(S(=O)(=O)c3c(C)noc3/C=C/N(C)C)CC2)cc1", "Potency": "inconclusive: 29.1 µM [activator, single point]"}, {"smiles": "CCOC(=O)C1Nc2ccc(Br)cc2C2C=CCC12", "note": "(stereo unspecified)", "lipid storage change, negative = inhibition": "inconclusive: 72.7%"}, {"smiles": "COc1ccccc1CN(C)C(=O)c1cccc(S(=O)(=O)N2CCCC2)c1", "lipid storage change, negative = inhibition": "inconclusive: 3.98%"}, {"smiles": "COc1ccc(/C=C/C(=O)c2ccc(OC)cc2OC)c(OC)c1", "lipid storage change, negative = inhibition": "inconclusive: -7.06%"}, {"smiles": "CC(=O)Nc1ccc(NC(=O)CSc2nnc(NC(=O)C3CC(=O)N(c4ccccc4)C3)s2)cc1", "note": "(stereo unspecified)", "lipid storage change, negative = inhibition": "inconclusive: 3.47%"}, {"smiles": "Nn1c(Cc2cccc3ccccc23)nnc1SC1CCOC1=O", "note": "(stereo unspecified)", "lipid storage change, negative = inhibition": "inconclusive: 42.6%"}, {"smiles": "Cc1nnc2ccc(-c3cccc(NS(C)(=O)=O)c3)nn12", "lipid storage change, negative = inhibition": "inconclusive: 12.1%"}, {"smiles": "C=CCn1c(Cc2cccs2)nnc1SCC(=O)Nc1ccc(OC)cc1", "lipid storage change, negative = inhibition": "inconclusive: 20.8%"}, {"smiles": "O=C(Cn1ncc2c1-c1ccccc1OC2)Nc1cccc(Cl)c1", "Potency": "inconclusive: 0.13 µM [activator, full curve, poor fit]"}]}]}
